Earlier results as cited in patent US20150359668A1, “LIGHT DELIVERY DEVICE AND RELATED COMPOSITIONS, METHODS AND SYSTEMS” (CALIFORNIA INSTITUTE OF TECHNOLOGY, priority 2011, published 2015).
At least one structure is not confirmed: it was looked up by name or label, or the drawing left a doubt.

Details: cited from earlier work

O=C1OC2(c3ccc(O)cc3Oc3cc(O)ccc32)c2ccccc21 [fluorescein]
hydrodynamic radius: 4.8 Å
